The supplement of paper PMC11264405

How the values were obtained:
Test in all cases: minimum inhibitory concentration
[1] = compound: CC(=O)NC[C@H]1CN(c2ccc(N3CCOCC3)c(F)c2)C(=O)O1 [linezolid]
[2] = compound: CCC[C@@H]1C[C@@H](C(=O)N[C@@H]([C@H]2O[C@H](SC)[C@H](O)[C@@H](O)[C@H]2O)[C@H](C)Cl)N(C)C1 [clindamycin]
[3] = compound: CCc1c(Cl)c(O)c(Cl)c(O)c1C(=O)O[C@H]1[C@H](O)[C@H](OC)[C@H](OC/C2=C\C=C\C[C@H](O)/C(C)=C/[C@H](CC)[C@@H](O[C@@H]3OC(C)(C)[C@@H](OC(=O)C(C)C)[C@H](O)[C@@H]3O)/C(C)=C/C(C)=C/C[C@@H]([C@@H](C)O)OC2=O)O[C@@H]1C [fidaxomicin]
[4] = compound: CN(C)c1cc(NC(=O)CNC(C)(C)C)c(O)c2c1C[C@H]1C[C@H]3[C@H](N(C)C)C(O)=C(C(N)=O)C(=O)[C@@]3(O)C(O)=C1C2=O [tigecycline]
[5] = compound: CN[C@H](CC(C)C)C(=O)N[C@H]1C(=O)N[C@@H](CC(N)=O)C(=O)N[C@H]2C(=O)N[C@H]3C(=O)N[C@H](C(=O)N[C@H](C(=O)O)c4cc(O)cc(O)c4-c4cc3ccc4O)[C@H](O)c3ccc(c(Cl)c3)Oc3cc2cc(c3O[C@@H]2O[C@H](CO)[C@@H](O)[C@H](O)[C@H]2O[C@H]2C[C@](C)(N)[C@H](O)[C@H](C)O2)Oc2ccc(cc2Cl)[C@H]1O [vancomycin]
[6] = compound: CO[C@H]1/C=C/O[C@@]2(C)Oc3c(C)c(O)c4c(O)c(c(/C=N/N5CCN(C)CC5)c(O)c4c3C2=O)NC(=O)/C(C)=C\C=C\[C@H](C)[C@H](O)[C@@H](C)[C@@H](O)[C@@H](C)[C@H](OC(C)=O)[C@@H]1C [rifampicin]
[7] = compound: C[C@@H](O)[C@H]1C(=O)N2C(C(=O)O)=C(SCCNC=N)C[C@H]12 [imipenem]
[8] = compound: C[C@@H](O)[C@H]1C(=O)N2C(C(=O)O)=C(S[C@@H]3CN[C@H](C(=O)N(C)C)C3)[C@H](C)[C@H]12 [meropenem]
[9] = compound: Cc1ncc([N+](=O)[O-])n1CCO [metronidazole]

Test System	minimum inhibitory concentration [1]	minimum inhibitory concentration [2]	minimum inhibitory concentration [3]	minimum inhibitory concentration [4]	minimum inhibitory concentration [5]	minimum inhibitory concentration [6]	minimum inhibitory concentration [7]	minimum inhibitory concentration [8]	minimum inhibitory concentration [9]
Clostridioides difficile PCR ribotype 181 isolate #241 (European region: East, country: Romania, isolate source: Human, ribotype: 181)	2 µg/mL	8 µg/mL	0.06 µg/mL	< 0.03 µg/mL	0.5 µg/mL	> 32 µg/mL	4 µg/mL	4 µg/mL	1 µg/mL
Clostridioides difficile PCR ribotype 181 isolate #242 (European region: East, country: Romania, isolate source: Human, ribotype: 181)	2 µg/mL	16 µg/mL	0.03 µg/mL	< 0.03 µg/mL	0.5 µg/mL	> 32 µg/mL	4 µg/mL	4 µg/mL	1 µg/mL
Clostridioides difficile PCR ribotype 181 isolate #243 (European region: East, country: Romania, isolate source: Human, ribotype: 181)	2 µg/mL	16 µg/mL	0.03 µg/mL	< 0.03 µg/mL	0.5 µg/mL	> 32 µg/mL	8 µg/mL	4 µg/mL	1 µg/mL
Clostridioides difficile PCR ribotype 181 isolate #244 (European region: East, country: Romania, isolate source: Human, ribotype: 181)	2 µg/mL	16 µg/mL	0.03 µg/mL	< 0.03 µg/mL	0.5 µg/mL	> 32 µg/mL	4 µg/mL	4 µg/mL	1 µg/mL
Clostridioides difficile PCR ribotype 181 isolate #245 (European region: East, country: Romania, isolate source: Human, ribotype: 181)	2 µg/mL	16 µg/mL	0.03 µg/mL	< 0.03 µg/mL	0.5 µg/mL	> 32 µg/mL	4 µg/mL	4 µg/mL	1 µg/mL
Clostridioides difficile PCR ribotype 181 isolate #246 (European region: East, country: Romania, isolate source: Human, ribotype: 181)	2 µg/mL	16 µg/mL	0.03 µg/mL	0.06 µg/mL	0.5 µg/mL	> 32 µg/mL	8 µg/mL	4 µg/mL	1 µg/mL
Clostridioides difficile PCR ribotype 181 isolate #247 (European region: East, country: Romania, isolate source: Human, ribotype: 181)	2 µg/mL	16 µg/mL	0.03 µg/mL	< 0.03 µg/mL	0.5 µg/mL	> 32 µg/mL	4 µg/mL	4 µg/mL	1 µg/mL
Clostridioides difficile PCR ribotype 181 isolate #248 (European region: East, country: Romania, isolate source: Human, ribotype: 181)	2 µg/mL	16 µg/mL	0.03 µg/mL	< 0.03 µg/mL	0.5 µg/mL	> 32 µg/mL	4 µg/mL	4 µg/mL	1 µg/mL
Clostridioides difficile PCR ribotype 181 isolate #249 (European region: East, country: Romania, isolate source: Human, ribotype: 181)	2 µg/mL	8 µg/mL	0.125 µg/mL	< 0.03 µg/mL	0.5 µg/mL	> 32 µg/mL	4 µg/mL	4 µg/mL	1 µg/mL
Clostridioides difficile PCR ribotype 181 isolate #250 (European region: East, country: Romania, isolate source: Human, ribotype: 181)	2 µg/mL	8 µg/mL	0.015 µg/mL	< 0.03 µg/mL	0.5 µg/mL	> 32 µg/mL	4 µg/mL	4 µg/mL	1 µg/mL
Clostridioides difficile PCR ribotype 181 isolate #251 (European region: East, country: Romania, isolate source: Human, ribotype: 181)	1 µg/mL	16 µg/mL	0.03 µg/mL	< 0.03 µg/mL	0.5 µg/mL	> 32 µg/mL	4 µg/mL	4 µg/mL	1 µg/mL
Clostridioides difficile PCR ribotype 181 isolate #252 (European region: East, country: Romania, isolate source: Human, ribotype: 181)	1 µg/mL	16 µg/mL	0.015 µg/mL	< 0.03 µg/mL	1 µg/mL	> 32 µg/mL	4 µg/mL	4 µg/mL	1 µg/mL
Clostridioides difficile PCR ribotype 181 isolate #253 (European region: East, country: Romania, isolate source: Human, ribotype: 181)	1 µg/mL	8 µg/mL	0.015 µg/mL	< 0.03 µg/mL	0.5 µg/mL	> 32 µg/mL	4 µg/mL	4 µg/mL	1 µg/mL
Clostridioides difficile PCR ribotype 181 isolate #254 (European region: North, country: UK, isolate source: Human, ribotype: 181)	2 µg/mL	8 µg/mL	0.06 µg/mL	< 0.03 µg/mL	0.5 µg/mL	> 32 µg/mL	4 µg/mL	4 µg/mL	1 µg/mL
Clostridioides difficile PCR ribotype 193 isolate #398 (European region: South, country: Spain, isolate source: Animal, ribotype: 193)	2 µg/mL	4 µg/mL	0.03 µg/mL	0.06 µg/mL	0.5 µg/mL	< 0.001 µg/mL	1 µg/mL	4 µg/mL	0.25 µg/mL
Clostridioides difficile PCR ribotype 204 isolate #399 (European region: West, country: France, isolate source: Animal, ribotype: 204)	2 µg/mL	> 128 µg/mL	0.015 µg/mL	< 0.03 µg/mL	0.5 µg/mL	< 0.001 µg/mL	1 µg/mL	4 µg/mL	0.25 µg/mL
Clostridioides difficile PCR ribotype 216 isolate #256 (European region: West, country: France, isolate source: Human, ribotype: 216)	1 µg/mL	0.5 µg/mL	0.06 µg/mL	0.125 µg/mL	0.5 µg/mL	< 0.001 µg/mL	1 µg/mL	4 µg/mL	0.25 µg/mL
Clostridioides difficile PCR ribotype 216 isolate #257 (European region: West, country: France, isolate source: Human, ribotype: 216)	< 0.125 µg/mL	8 µg/mL	0.03 µg/mL	0.125 µg/mL	0.5 µg/mL	< 0.001 µg/mL	2 µg/mL	4 µg/mL	0.25 µg/mL
Clostridioides difficile PCR ribotype 254 isolate #258 (European region: North, country: Sweden, isolate source: Human, ribotype: 254)	2 µg/mL	1 µg/mL	0.015 µg/mL	< 0.03 µg/mL	1 µg/mL	< 0.001 µg/mL	2 µg/mL	4 µg/mL	< 0.125 µg/mL
Clostridioides difficile PCR ribotype 277 isolate #259 (European region: North, country: UK, isolate source: Human, ribotype: 277)	2 µg/mL	0.5 µg/mL	0.015 µg/mL	< 0.03 µg/mL	0.5 µg/mL	< 0.001 µg/mL	2 µg/mL	2 µg/mL	< 0.125 µg/mL
Clostridioides difficile PCR ribotype 293 isolate #260 (European region: North, country: UK, isolate source: Human, ribotype: 293)	2 µg/mL	1 µg/mL	0.06 µg/mL	< 0.03 µg/mL	0.5 µg/mL	< 0.001 µg/mL	2 µg/mL	2 µg/mL	< 0.125 µg/mL
Clostridioides difficile PCR ribotype 356 isolate #262 (European region: South, country: Italy, isolate source: Human, ribotype: 356)	4 µg/mL	16 µg/mL	0.03 µg/mL	0.06 µg/mL	< 0.125 µg/mL	16 µg/mL	4 µg/mL	4 µg/mL	0.5 µg/mL
Clostridioides difficile PCR ribotype 430 isolate #263 (European region: South, country: Spain, isolate source: Human, ribotype: 430)	2 µg/mL	4 µg/mL	0.015 µg/mL	< 0.03 µg/mL	1 µg/mL	0.004 µg/mL	4 µg/mL	4 µg/mL	< 0.125 µg/mL
Clostridioides difficile PCR ribotype 430 isolate #264 (European region: South, country: Spain, isolate source: Human, ribotype: 430)	2 µg/mL	16 µg/mL	0.03 µg/mL	0.06 µg/mL	0.5 µg/mL	< 0.001 µg/mL	4 µg/mL	2 µg/mL	0.25 µg/mL
Clostridioides difficile PCR ribotype 431 isolate #265 (European region: South, country: Spain, isolate source: Human, ribotype: 431)	2 µg/mL	16 µg/mL	0.015 µg/mL	< 0.03 µg/mL	1 µg/mL	0.5 µg/mL	2 µg/mL	2 µg/mL	< 0.125 µg/mL
Clostridioides difficile PCR ribotype 454 isolate #400 (European region: West, country: Netherlands, isolate source: Animal, ribotype: 454)	2 µg/mL	16 µg/mL	0.008 µg/mL	< 0.03 µg/mL	0.5 µg/mL	< 0.001 µg/mL	1 µg/mL	4 µg/mL	< 0.125 µg/mL

As a working copy, some entries already given:
Test System	minimum inhibitory concentration [1]	minimum inhibitory concentration [2]	minimum inhibitory concentration [3]	minimum inhibitory concentration [4]	minimum inhibitory concentration [5]	minimum inhibitory concentration [6]	minimum inhibitory concentration [7]	minimum inhibitory concentration [8]	minimum inhibitory concentration [9]
Clostridioides difficile PCR ribotype 181 isolate #250 (European region: East, country: Romania, isolate source: Human, ribotype: 181)	2 µg/mL	8 µg/mL	0.015 µg/mL	< 0.03 µg/mL	0.5 µg/mL	> 32 µg/mL	4 µg/mL	4 µg/mL	1 µg/mL
Clostridioides difficile PCR ribotype 181 isolate #251 (European region: East, country: Romania, isolate source: Human, ribotype: 181)	1 µg/mL	16 µg/mL	0.03 µg/mL	< 0.03 µg/mL	0.5 µg/mL	> 32 µg/mL	4 µg/mL	4 µg/mL	1 µg/mL
Clostridioides difficile PCR ribotype 181 isolate #252 (European region: East, country: Romania, isolate source: Human, ribotype: 181)	1 µg/mL	16 µg/mL	0.015 µg/mL	< 0.03 µg/mL	1 µg/mL	> 32 µg/mL	4 µg/mL	4 µg/mL	1 µg/mL
Clostridioides difficile PCR ribotype 181 isolate #253 (European region: East, country: Romania, isolate source: Human, ribotype: 181)	1 µg/mL	8 µg/mL	0.015 µg/mL	< 0.03 µg/mL	0.5 µg/mL	> 32 µg/mL	4 µg/mL	4 µg/mL	1 µg/mL
Clostridioides difficile PCR ribotype 181 isolate #254 (European region: North, country: UK, isolate source: Human, ribotype: 181)	2 µg/mL	8 µg/mL	0.06 µg/mL	< 0.03 µg/mL	0.5 µg/mL	> 32 µg/mL	4 µg/mL	4 µg/mL	1 µg/mL
Clostridioides difficile PCR ribotype 193 isolate #398 (European region: South, country: Spain, isolate source: Animal, ribotype: 193)	2 µg/mL	4 µg/mL	0.03 µg/mL	0.06 µg/mL	0.5 µg/mL	< 0.001 µg/mL	1 µg/mL	4 µg/mL	0.25 µg/mL
Clostridioides difficile PCR ribotype 204 isolate #399 (European region: West, country: France, isolate source: Animal, ribotype: 204)	2 µg/mL	> 128 µg/mL	0.015 µg/mL	< 0.03 µg/mL	0.5 µg/mL	< 0.001 µg/mL	1 µg/mL	4 µg/mL	0.25 µg/mL
Clostridioides difficile PCR ribotype 216 isolate #256 (European region: West, country: France, isolate source: Human, ribotype: 216)	1 µg/mL	0.5 µg/mL	0.06 µg/mL	0.125 µg/mL	0.5 µg/mL	< 0.001 µg/mL	1 µg/mL	4 µg/mL	0.25 µg/mL
